Measured data: PubChem BioAssay AID1259254 (NCATS, 2017)
Assay: 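Finding genes that stop cells copying their DNA twice in one cycle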 (primary screen). Cell system: human HCT116 colorectal cancer cells. Reagents: single siRNA against human genes. Duration: 3 days. Measurement: 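Nuclei stained with Hoechst and imaged; cell-cycle phase assigned by DNA content; G2 share scaled per plate, non-targeting siRNA 0%, GMNN siRNA 100%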. Scale: G2 robust z-score: higher = more G2 cells, more excess DNA replication. Call rule: 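An siRNA counts as active if its G2 robust z-score lies at least 5 MADs above the screen median; here such calls match roughly 38% of GMNN control or more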.
Shown is one part, drawn at random, of about 59,000 reagents tested. Of all reagents, about 1,550 (2.6%) got an active call. 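G2 share is only a proxy for re-replication; each gene was hit by three separate siRNAs, and active genes were retested.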 The numbers tell different reagents against one gene apart. Further read-outs or replicates are left out here. Not given: the amount of reagent.

The first 2 records as a preview:
| G2 robust z-score | Call | gene symbol | reagent |
| --- | --- | --- | --- |
| 1.52 | inactive | POU1F1 | 1 |
| 0.807 | inactive | POU1F1 | 2 |

The listing, from the start:
| G2 robust z-score | Call | gene symbol | reagent |
| --- | --- | --- | --- |
| 1.52 | inactive | POU1F1 | 1 |
| 0.807 | inactive | POU1F1 | 2 |
| 0.716 | inactive | POU1F1 | 3 |
| 1.12 | inactive | ZSCAN4 | 1 |
| -0.742 | inactive | ZSCAN4 | 2 |
| 0.147 | inactive | ZSCAN4 | 3 |
| 1.18 | inactive | BAG1 | 1 |
| 11.6 | active | BAG1 | 2 |
| -0.76 | inactive | BAG1 | 3 |
| -0.669 | inactive | LSM7 | 1 |
| 1.29 | inactive | LSM7 | 2 |
| 2.41 | inactive | LSM7 | 3 |
| 1.67 | inactive | CCT3 | 1 |
| 1.71 | inactive | CCT3 | 2 |
| 0.957 | inactive | CCT3 | 3 |
| -0.574 | inactive | EEF1D | 1 |
| -1.27 | inactive | EEF1D | 2 |
| -0.0464 | inactive | EEF1D | 3 |
| -0.173 | inactive | LOC647264 | 1 |
| 0.95 | inactive | LOC647264 | 2 |
| 0.3 | inactive | LOC647264 | 3 |
| -1.28 | inactive | TMEM43 | 1 |
| -0.0608 | inactive | TMEM43 | 2 |
| -0.57 | inactive | TMEM43 | 3 |
| 5.71 | active | TMEM45B | 1 |
| 1.72 | inactive | TMEM45B | 2 |
| -0.482 | inactive | TMEM45B | 3 |
| -0.656 | inactive | PDCL2 | 1 |
| -0.399 | inactive | PDCL2 | 2 |
| -0.117 | inactive | PDCL2 | 3 |
